# From PubChem BioAssay AID1259354 (Paczesny and Yang Labs, IUPUI and University of Michigan, 2018)
# Protein sequences, listed by entry. Tags and fused reporters are not part of them. Lines headed by an entry give the natural chain unless they say otherwise; changes in a name come on top.
# UniProt Q01638: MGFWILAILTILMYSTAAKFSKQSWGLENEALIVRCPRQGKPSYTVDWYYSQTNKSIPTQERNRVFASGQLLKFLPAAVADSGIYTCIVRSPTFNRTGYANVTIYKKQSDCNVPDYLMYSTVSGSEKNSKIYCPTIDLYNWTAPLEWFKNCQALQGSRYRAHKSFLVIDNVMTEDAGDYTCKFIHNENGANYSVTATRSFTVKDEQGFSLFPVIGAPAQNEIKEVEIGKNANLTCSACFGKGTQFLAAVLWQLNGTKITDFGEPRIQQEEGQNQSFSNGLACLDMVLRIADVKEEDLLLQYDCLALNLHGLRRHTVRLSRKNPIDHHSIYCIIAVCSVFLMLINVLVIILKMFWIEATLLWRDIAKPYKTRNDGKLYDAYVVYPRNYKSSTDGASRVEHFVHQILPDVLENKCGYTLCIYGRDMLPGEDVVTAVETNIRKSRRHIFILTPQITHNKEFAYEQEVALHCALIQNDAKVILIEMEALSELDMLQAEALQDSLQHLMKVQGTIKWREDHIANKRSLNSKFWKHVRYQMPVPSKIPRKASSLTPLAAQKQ
# Hit rate of the full screen: of about 78,000 compounds, about 1,800 (2.3%) were called active. Inconclusive means that the source gave no clear call. Such entries were picked first, then a sample of the others. Cut-off read from the data, not from the text of the source: active = inhibition above about 30%; inconclusive = mostly about 10% to 28%; inactive = weaker than that.
# Biological target: Interleukin-1 receptor-like 1 (Homo sapiens) (UniProt Q01638)
# Experiment: blocks human ST2 binding to IL-33, primary screen, biochemical, AlphaLISA (AID 1259354)
# Conditions: AlphaLISA ST2-Fc/biotin-IL-33 interaction, 1 h; at 17 µM, active compounds read high
row,SMILES,inhibition
1,Cc1ccc(CNC(=O)C2CCCN2S(=O)(=O)c2cc3c(cc2C)NC(=O)CO3)cc1 (stereo unspecified),inconclusive: 17%
2,Cn1c(=O)c2c(nc(N3CCOCC3)n2CCSc2ncccn2)n(C)c1=O,inconclusive: 18%
3,COc1ccccc1/C=C1/N=C(c2ccc(OC)c(OC)c2)N(c2ccccc2)C1=O,inconclusive: 27%
4,CCSC1=C(C#N)C(c2ccccc2Cl)CC(=O)N1 (stereo unspecified),inconclusive: 10%
5,Cc1ccc(NC(=O)C(NS(=O)(=O)c2ccc3c(c2)oc(=O)n3C)C(C)C)cc1C (stereo unspecified),inconclusive: 13%
6,COc1ccc(NC(=O)C2CCCCC2C(=O)O)cc1 (stereo unspecified),inconclusive: 13%
7,COc1ccc(N2CCN(C(=O)c3cn(C)c(=O)c4cc(OC)c(OC)cc34)CC2)cc1,active: 46%
8,CC(C)Cn1cc(C(=O)NC2CCCCC2)c2c3ccccc3n(C)c2c1=O,active: 36%
9,CCCn1cnnc1CNC(=O)COc1c(C)ccc(C)c1C,inactive
10,Cc1nc(C)n(CC(C)C(=O)N(C)Cc2sccc2C)n1 (stereo unspecified),inactive
11,CC(C)(C)c1ccccc1Oc1ccccc1N,inactive
12,COc1ccc(CN2CCN(Cc3cccn3C)CC2)c(OC)c1OC,inconclusive: 19%
13,Cc1ccc(-n2ncc3c(N4CCN(C)CC4)ncnc32)c(C)c1,inconclusive: 18%
14,NS(=O)(=O)c1ccc(-n2cccc2/C=C2/C(=O)NN(c3cc(Cl)cc(Cl)c3)C2=O)cc1,inconclusive: 22%
15,COc1ccc(CN2C(=O)CO[C@H]3CN(C(=O)COc4ccccc4)C[C@H]32)cc1,inconclusive: 14%
16,Cc1nc(C(C)C)sc1C(=O)N1CCC2(CC1)c1ccccc1[C@@H](N)[C@@H]2O,inconclusive: 27%
17,CC(=O)c1ccc(N=Cc2nc(-c3ccc(Cl)cc3)oc2O)cc1,inconclusive: 19%
18,CCCc1cc2c(=O)c(-c3cc4ccccc4o3)coc2cc1OC,inactive
19,c1ccc(CC2c3nc[nH]c3CCN2Cc2cccc3nonc23)cc1 (stereo unspecified),inconclusive: 16%
20,CCC1(CC)CN(C(=O)CC2C(=O)NCCN2Cc2cccnc2)CCO1 (stereo unspecified),inconclusive: 19%
21,COc1ccc(NC(=O)c2noc3c2CCCC3)cc1OC,inconclusive: 13%
22,Cc1cc(C)c(S(=O)(=O)N2CCN(c3nc(C)cc(N4CCCCC4)n3)CC2)c(C)c1,inactive
23,CCOC(=O)CSc1nc2c([nH]c3ccccc32)c(=O)n1-c1ccc(OC)cc1,inconclusive: 14%
24,COc1ccc(CCC(=O)Nc2cccc(N3CCCS3(=O)=O)c2)cc1,inconclusive: 17%

row,SMILES,inhibition
1,O=C(CN1CCCCCC1)N1CCCc2c1c(=O)oc1ccc(OCc3ccccc3)cc21,active: 30%
2,Cc1ccccc1-n1cc(CN2CCCC(N3CCCC3=O)C2)cn1 (stereo unspecified),inconclusive: 10%
3,Cc1ccccc1-c1nc2c(Cl)cc(Cl)cc2c(=O)o1,inconclusive: 10%
4,O=C(c1ccc2nc3ccccc3c(=O)n2c1)N1CCN(c2ccc(F)cc2)CC1,inconclusive: 13%
5,O=C1c2ccccc2C(Nc2ccc3c(c2)OCCO3)N1Cc1ccccc1 (stereo unspecified),inconclusive: 19%
6,Cc1ccc(Cn2c(CCNC(=O)Nc3cccc(Br)c3)nc3cccnc32)cc1,inactive
7,CCCCN(CC)C(=O)C1c2ccccc2C(=O)N2CCc3ccccc3C12 (stereo unspecified),inactive
8,CC1CCc2nc(NC(=O)c3ccc(S(=O)(=O)N4CC(C)CC(C)C4)cc3)sc2C1 (stereo unspecified),inactive
9,O=C1C(Nc2ccccc2)=C(NS(=O)(=O)c2ccccc2)C(=O)c2ccccc21,inconclusive: 24%
10,Cc1ccc(S(=O)(=O)Cc2noc([C@@H]3C[C@@H](O)CN3Cc3cccs3)n2)cc1,inconclusive: 13%
11,Cc1cccc(C(=O)Nc2cc(C(C)C)c(O)cc2C)c1,inconclusive: 19%
12,O=C(Nc1ccc(-c2cscn2)cc1)C1CCCN(C(=O)c2cccs2)C1 (stereo unspecified),inactive
13,CSCCC(NC(=O)C1CCC(C)CC1)C(=O)NC1CCCC(C)C1C (stereo unspecified),inactive
14,O=C(NCCN1CCCCCC1)c1ccc2c(c1)ncn2C1CCCC1,inconclusive: 12%
15,COC(=O)C(NC(=O)c1ccc2nc[nH]c2c1)c1cccc(C)c1 (stereo unspecified),inconclusive: 12%
16,c1cncc(CN(CC2CCN(C3Cc4ccccc4C3)CC2)CC2CCCO2)c1 (stereo unspecified),inactive
17,COc1cc(NC(=O)CCN2CCN(C/C=C/c3ccccc3)CC2)cc(OC)c1,inconclusive: 11%
18,CCN1CCc2c(sc(NC(=O)c3cccc(C(F)(F)F)c3)c2C(=O)OC)C1,inconclusive: 15%
19,O=C(NCc1cccnc1-n1cnc2ccccc21)C1CCC1,inconclusive: 11%
20,Cc1nn(C)c(Cl)c1S(=O)(=O)N1CCN2CCN(C)CC2C1 (stereo unspecified),inactive
21,CCN(CC)CCOC(=O)C1(C2CCCCC2)CCCCC1,inconclusive: 11%
22,Cc1ccccc1NCC(O)Cn1c(C)c(C)c2ccccc21 (stereo unspecified),inconclusive: 17%
23,OCCSc1ccc(Cc2ccc(SCCO)cc2)cc1,inactive
24,CCNc1ccc(Br)cc1-c1nc2ccccc2n(CC)c1=O,active: 77%

row,SMILES,inhibition
1,CCC(C)N(Cc1cccnc1)C(=O)CCSC (stereo unspecified),inconclusive: 10%
2,CCc1[nH]c2ccc(CNC(=O)COc3ccccc3O)cc2c1C,inconclusive: 14%
3,N#Cc1c2c(c(-n3ccnc3)n3c1nc1ccccc13)CCCC2,inconclusive: 12%
4,CCOc1ccc(NC(=O)N2CCCn3cncc3C2)cc1,inconclusive: 15%
5,c1ccc(CN2CC[C@H](c3nnc(-c4ccco4)o3)C2)cc1,inactive
6,COc1cccc(-c2nnnn2[C@H]2CO[C@H]3[C@@H]2OC[C@@H]3NC(=O)CC2(CC(=O)O)CCCC2)c1,inconclusive: 15%
7,COc1cc(/C=C2/SC(=Nc3ccccc3Cl)NC2=O)cc(OC)c1OC,inconclusive: 21%
8,CCOC(=O)c1sc(-c2ccc(C)cc2)c(C#N)c1C,inconclusive: 22%
9,COc1cc(NC(=O)C23CC4CC(CC(C4)C2)C3)c(OC)cc1Cl,inactive
10,CCCCOc1ccc(O)c(C(C)=O)c1,inconclusive: 26%
11,CN(C1CCCCC1)S(=O)(=O)c1ccc(C(=O)Nc2nnc(C3CC3)o2)cc1,inconclusive: 23%
12,CCC(Nc1nc(-c2ccncc2)nc2c1CCNC2)c1ccc(OC)cc1 (stereo unspecified),inconclusive: 17%
13,COc1cc(C2Nc3ccccc3NC3=C2C(=O)CC(c2cccs2)C3)cc([N+](=O)[O-])c1O (stereo unspecified),inconclusive: 21%
14,N#Cc1nc(COc2ccc(Cl)cc2)oc1N1CCN(Cc2ccccc2)CC1,active: 57%
15,CCCn1cnc2sc(C(=O)Oc3ccc(OC)cc3)c(C)c2c1=O,inconclusive: 15%
16,Cc1cccc(NC(=O)CSc2cc(=O)n(C)c3ccccc23)n1,inactive
17,O=C(Cc1cccs1)N1CCc2c(c(C(=O)N3CCOCC3)nn2CCCc2ccccc2)C1,inactive
18,N#CC1=C(N)Oc2cc(N)ccc2C1c1ccc(Cl)cc1 (stereo unspecified),inconclusive: 18%
19,CCc1ccc(S(=O)(=O)N2CCSC2c2ccc([N+](=O)[O-])cc2)cc1 (stereo unspecified),inconclusive: 11%
20,Cc1nc(NCc2ccccc2Cl)c2c3c(sc2n1)CCCC3,inactive
21,O=C(Nc1ccc([N+](=O)[O-])cc1)C1CC1c1ccccc1 (stereo unspecified),inactive
22,O=C(NCCc1cccc(F)c1)c1ccc(CSc2ncccn2)o1,inconclusive: 17%
23,COCCCn1c(SCC(=O)N2CC(C)CC(C)C2)nc2c(sc3ccccc32)c1=O (stereo unspecified),inactive
24,CC(C)(C)c1ccccc1OCC(O)CN1CCN(Cc2ccc3c(c2)OCO3)CC1 (stereo unspecified),active: 97%

# Reformatted with bars between the fields: 23 of the compounds above.
row | SMILES | inhibition
23 | OCCSc1ccc(Cc2ccc(SCCO)cc2)cc1 | inactive
24 | CCNc1ccc(Br)cc1-c1nc2ccccc2n(CC)c1=O | active: 77%
2 | CCc1[nH]c2ccc(CNC(=O)COc3ccccc3O)cc2c1C | inconclusive: 14%
3 | N#Cc1c2c(c(-n3ccnc3)n3c1nc1ccccc13)CCCC2 | inconclusive: 12%
4 | CCOc1ccc(NC(=O)N2CCCn3cncc3C2)cc1 | inconclusive: 15%
5 | c1ccc(CN2CC[C@H](c3nnc(-c4ccco4)o3)C2)cc1 | inactive
6 | COc1cccc(-c2nnnn2[C@H]2CO[C@H]3[C@@H]2OC[C@@H]3NC(=O)CC2(CC(=O)O)CCCC2)c1 | inconclusive: 15%
7 | COc1cc(/C=C2/SC(=Nc3ccccc3Cl)NC2=O)cc(OC)c1OC | inconclusive: 21%
8 | CCOC(=O)c1sc(-c2ccc(C)cc2)c(C#N)c1C | inconclusive: 22%
10 | CCCCOc1ccc(O)c(C(C)=O)c1 | inconclusive: 26%
11 | CN(C1CCCCC1)S(=O)(=O)c1ccc(C(=O)Nc2nnc(C3CC3)o2)cc1 | inconclusive: 23%
12 | CCC(Nc1nc(-c2ccncc2)nc2c1CCNC2)c1ccc(OC)cc1 (stereo unspecified) | inconclusive: 17%
14 | N#Cc1nc(COc2ccc(Cl)cc2)oc1N1CCN(Cc2ccccc2)CC1 | active: 57%
15 | CCCn1cnc2sc(C(=O)Oc3ccc(OC)cc3)c(C)c2c1=O | inconclusive: 15%
16 | Cc1cccc(NC(=O)CSc2cc(=O)n(C)c3ccccc23)n1 | inactive
17 | O=C(Cc1cccs1)N1CCc2c(c(C(=O)N3CCOCC3)nn2CCCc2ccccc2)C1 | inactive
18 | N#CC1=C(N)Oc2cc(N)ccc2C1c1ccc(Cl)cc1 (stereo unspecified) | inconclusive: 18%
19 | CCc1ccc(S(=O)(=O)N2CCSC2c2ccc([N+](=O)[O-])cc2)cc1 (stereo unspecified) | inconclusive: 11%
20 | Cc1nc(NCc2ccccc2Cl)c2c3c(sc2n1)CCCC3 | inactive
21 | O=C(Nc1ccc([N+](=O)[O-])cc1)C1CC1c1ccccc1 (stereo unspecified) | inactive
22 | O=C(NCCc1cccc(F)c1)c1ccc(CSc2ncccn2)o1 | inconclusive: 17%
23 | COCCCn1c(SCC(=O)N2CC(C)CC(C)C2)nc2c(sc3ccccc32)c1=O (stereo unspecified) | inactive
24 | CC(C)(C)c1ccccc1OCC(O)CN1CCN(Cc2ccc3c(c2)OCO3)CC1 (stereo unspecified) | active: 97%

# (list continues)

row,SMILES,inhibition
1,O=C(C1=CCCC1)N1CCCC(Nc2ccc3c(c2)OCCO3)C1 (stereo unspecified),inactive
2,COc1cccc(/C=C2/C(=O)NN(c3cccc(C(F)(F)F)c3)C2=O)c1,inconclusive: 11%
3,Cc1cccc(NC(=O)CCC2CCN(S(=O)(=O)c3ccc(C)s3)CC2)c1,inactive
4,COCC(=O)N1CCCC(Nc2ccccc2)C1 (stereo unspecified),inactive
5,COc1ccc(OC)c(/C=C/C(=O)Nc2ccc(Cl)cc2[N+](=O)[O-])c1,inconclusive: 15%
6,CN(CCCNC(=O)c1cccn1-c1nnc(N2CCCCC2)s1)c1ccccc1,inconclusive: 13%
7,c1csc(CN2CCC(n3cc(C4CC4)nn3)CC2)c1,inconclusive: 22%
8,CCc1c(C)sc(NC(=O)CCCn2nc([N+](=O)[O-])cc2C)c1C#N,inactive
9,CC(C)C(NC(=O)C1CCCCC1)C(=O)NCc1ccccn1 (stereo unspecified),inconclusive: 17%
10,Ic1ccccc1C(N1CCOCC1)N1CCOCC1,inconclusive: 12%
11,CCc1cc(CN(C)CCC(=O)Nc2cccnc2)on1,inconclusive: 10%
12,O=c1[nH]c2cc3c(cc2cc1CN1CCC(F)(F)C1)CCC3,inconclusive: 27%
13,CSCCC(NC(=O)C1CCC(C)CC1)C(=O)N1CCN(c2ccccc2F)CC1 (stereo unspecified),inconclusive: 14%
14,CCN(CC)C(=O)C1CCCN(Cc2ccccc2C)C1 (stereo unspecified),inconclusive: 13%
15,Cc1nc2c(C(=O)NCCc3ccccc3)c[nH]n2c(=O)c1Cc1ccccc1F,inconclusive: 19%
16,CN(C)CCN1C(=O)C(=O)C(=C(O)c2ccccc2)C1c1ccccc1 (stereo unspecified),inconclusive: 10%
17,CC1CCN(Cc2cc(Br)c(O)c3ncccc23)CC1,inconclusive: 23%
18,COc1cccc2cc(C(=O)NC(C)=O)c(=Nc3ccc(Cl)cc3Cl)oc12,inconclusive: 18%
19,O=C(Nc1cccc(OC(=O)c2cccs2)c1)c1cccs1,inactive
20,Cc1c(-c2ccccc2F)[nH]c2ccc(CNc3cnccn3)cc12,inconclusive: 21%
21,COc1cc2c(C(=O)NCCCN3CCCC3)cn(CC(C)C)c(=O)c2cc1OC,inconclusive: 19%
22,Clc1ccc(CNc2ncnc3ccccc23)cc1,inactive
23,COc1ccc(C)cc1NC(=O)C(C)N(c1ccccc1)S(C)(=O)=O (stereo unspecified),inconclusive: 13%
24,CCS(=O)(=O)N1CCCC(C(=O)NCCCN2CCCCC2C)C1 (stereo unspecified),inactive
